# Results taken from the supplement of paper PMC10849652.
# The chains behind the UniProt entries cited, without tags or fusion partners. Where a name states a change or a piece, a line headed by the entry shows the natural chain unless it says otherwise.
# UniProt Q9UP83: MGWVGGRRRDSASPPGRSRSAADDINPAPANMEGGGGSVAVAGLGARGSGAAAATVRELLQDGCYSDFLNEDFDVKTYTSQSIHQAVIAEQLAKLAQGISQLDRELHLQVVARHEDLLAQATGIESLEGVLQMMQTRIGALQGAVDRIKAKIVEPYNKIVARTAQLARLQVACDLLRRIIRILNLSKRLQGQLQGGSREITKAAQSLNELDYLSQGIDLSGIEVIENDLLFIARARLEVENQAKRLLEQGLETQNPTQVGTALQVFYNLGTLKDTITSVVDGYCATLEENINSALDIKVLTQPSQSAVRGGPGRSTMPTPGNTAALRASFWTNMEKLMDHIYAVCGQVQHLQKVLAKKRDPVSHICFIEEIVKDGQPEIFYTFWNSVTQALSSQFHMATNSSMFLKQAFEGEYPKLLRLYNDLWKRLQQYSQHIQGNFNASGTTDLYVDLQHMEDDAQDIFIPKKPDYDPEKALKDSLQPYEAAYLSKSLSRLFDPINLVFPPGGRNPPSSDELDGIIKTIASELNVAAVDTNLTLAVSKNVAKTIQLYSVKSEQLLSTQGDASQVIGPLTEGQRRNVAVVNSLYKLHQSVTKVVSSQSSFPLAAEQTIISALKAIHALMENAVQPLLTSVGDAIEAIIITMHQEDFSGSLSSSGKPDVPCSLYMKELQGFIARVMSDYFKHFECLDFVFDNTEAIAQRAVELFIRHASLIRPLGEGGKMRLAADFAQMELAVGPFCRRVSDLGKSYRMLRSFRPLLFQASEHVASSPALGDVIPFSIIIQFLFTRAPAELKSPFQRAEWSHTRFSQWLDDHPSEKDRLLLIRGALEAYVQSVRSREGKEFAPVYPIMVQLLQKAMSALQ
# UniProt P38432, whole entry, looked up: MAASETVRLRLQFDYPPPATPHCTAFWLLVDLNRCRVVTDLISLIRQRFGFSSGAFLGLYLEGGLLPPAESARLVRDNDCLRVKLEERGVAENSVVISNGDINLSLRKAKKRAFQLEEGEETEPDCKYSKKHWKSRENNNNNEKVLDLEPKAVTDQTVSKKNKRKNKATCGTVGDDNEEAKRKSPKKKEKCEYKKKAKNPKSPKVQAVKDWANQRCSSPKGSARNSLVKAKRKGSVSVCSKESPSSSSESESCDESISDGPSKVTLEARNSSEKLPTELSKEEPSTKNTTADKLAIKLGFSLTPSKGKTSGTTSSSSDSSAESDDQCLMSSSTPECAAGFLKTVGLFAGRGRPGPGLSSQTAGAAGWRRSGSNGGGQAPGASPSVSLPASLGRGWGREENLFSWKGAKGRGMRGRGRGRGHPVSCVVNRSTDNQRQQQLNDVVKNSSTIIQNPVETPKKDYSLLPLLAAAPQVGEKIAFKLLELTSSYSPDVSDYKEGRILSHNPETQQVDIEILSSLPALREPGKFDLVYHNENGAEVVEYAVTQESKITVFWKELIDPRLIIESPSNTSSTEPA
# UniProt Q7Z7A1: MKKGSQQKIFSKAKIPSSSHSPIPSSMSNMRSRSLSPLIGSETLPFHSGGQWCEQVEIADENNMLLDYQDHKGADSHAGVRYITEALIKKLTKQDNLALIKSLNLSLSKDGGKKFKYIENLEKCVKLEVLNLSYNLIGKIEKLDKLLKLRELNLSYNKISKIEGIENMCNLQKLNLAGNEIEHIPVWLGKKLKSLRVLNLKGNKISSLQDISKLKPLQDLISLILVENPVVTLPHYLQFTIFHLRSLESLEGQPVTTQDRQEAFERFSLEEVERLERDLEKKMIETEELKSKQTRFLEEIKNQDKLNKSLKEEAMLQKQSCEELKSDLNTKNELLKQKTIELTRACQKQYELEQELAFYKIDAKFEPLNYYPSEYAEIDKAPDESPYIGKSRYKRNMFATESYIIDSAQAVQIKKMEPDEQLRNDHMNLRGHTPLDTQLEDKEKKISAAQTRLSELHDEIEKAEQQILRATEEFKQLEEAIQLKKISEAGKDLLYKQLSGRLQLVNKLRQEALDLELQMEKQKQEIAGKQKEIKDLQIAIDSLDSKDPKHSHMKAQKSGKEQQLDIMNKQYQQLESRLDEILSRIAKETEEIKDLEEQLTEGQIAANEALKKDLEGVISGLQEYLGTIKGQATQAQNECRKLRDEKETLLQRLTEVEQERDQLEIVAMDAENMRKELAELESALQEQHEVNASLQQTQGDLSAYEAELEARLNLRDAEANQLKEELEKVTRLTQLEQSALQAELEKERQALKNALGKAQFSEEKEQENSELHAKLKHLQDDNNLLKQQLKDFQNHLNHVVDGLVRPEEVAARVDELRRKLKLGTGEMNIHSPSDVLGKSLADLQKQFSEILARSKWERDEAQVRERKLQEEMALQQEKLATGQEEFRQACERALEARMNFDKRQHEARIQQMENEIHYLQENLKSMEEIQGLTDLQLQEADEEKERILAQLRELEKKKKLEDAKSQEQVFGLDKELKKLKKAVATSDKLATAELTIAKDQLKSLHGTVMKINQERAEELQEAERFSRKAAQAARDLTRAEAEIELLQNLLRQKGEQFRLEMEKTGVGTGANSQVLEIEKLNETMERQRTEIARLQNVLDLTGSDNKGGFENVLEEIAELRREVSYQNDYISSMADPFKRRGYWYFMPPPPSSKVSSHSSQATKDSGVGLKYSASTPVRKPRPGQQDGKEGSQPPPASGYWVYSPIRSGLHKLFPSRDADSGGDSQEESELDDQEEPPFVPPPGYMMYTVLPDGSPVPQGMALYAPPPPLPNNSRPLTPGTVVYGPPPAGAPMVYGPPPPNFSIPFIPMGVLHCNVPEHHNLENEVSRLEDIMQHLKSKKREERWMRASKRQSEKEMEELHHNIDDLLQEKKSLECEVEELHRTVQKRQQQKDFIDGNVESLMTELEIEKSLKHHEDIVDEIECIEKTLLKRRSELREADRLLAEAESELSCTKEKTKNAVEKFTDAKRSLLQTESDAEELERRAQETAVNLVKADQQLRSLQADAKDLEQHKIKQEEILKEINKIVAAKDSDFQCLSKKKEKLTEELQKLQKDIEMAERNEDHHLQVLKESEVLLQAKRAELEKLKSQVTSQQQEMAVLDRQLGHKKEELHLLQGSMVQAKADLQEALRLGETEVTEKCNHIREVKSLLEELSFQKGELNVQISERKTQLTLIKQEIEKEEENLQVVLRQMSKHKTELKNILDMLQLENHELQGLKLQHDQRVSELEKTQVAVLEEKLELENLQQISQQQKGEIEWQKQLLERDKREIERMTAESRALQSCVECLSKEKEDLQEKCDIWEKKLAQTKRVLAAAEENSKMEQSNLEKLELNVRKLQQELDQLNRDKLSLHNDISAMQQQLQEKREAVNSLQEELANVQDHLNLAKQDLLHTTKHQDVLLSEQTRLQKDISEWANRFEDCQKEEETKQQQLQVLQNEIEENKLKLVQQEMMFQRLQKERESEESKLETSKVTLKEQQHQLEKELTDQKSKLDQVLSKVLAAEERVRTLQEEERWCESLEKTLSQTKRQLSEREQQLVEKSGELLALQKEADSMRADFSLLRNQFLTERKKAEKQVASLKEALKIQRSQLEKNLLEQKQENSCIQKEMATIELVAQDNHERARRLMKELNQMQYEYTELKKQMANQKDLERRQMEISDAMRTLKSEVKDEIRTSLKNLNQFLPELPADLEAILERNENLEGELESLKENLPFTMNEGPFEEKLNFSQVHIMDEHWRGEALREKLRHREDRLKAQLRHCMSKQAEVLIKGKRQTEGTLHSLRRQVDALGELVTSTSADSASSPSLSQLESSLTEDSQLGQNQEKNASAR
# This is one part of the list.
# Key:
# Assay in all cases: log2 fold change, soluble protein after heating vs DMSO (PISA); higher = thermal stabilisation; K562 cells, 10 uM, 30 min; active = over 0.2 and 3.5 SD of the protein, either way, in both replicates (recomputed)
# [1] = compound: CC1=C2C(=CC=C1)N=C(N(C2=O)C3=CC=CC=C3C)CN4C=NC5=C(N=CN=C54)N
# In short: (§1)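 Soluble protein was defined as the supernatant after 21,000xg for 90 min. It came from K562 cells at 2×10^6 cells/mL given 10 μM compound for 30 min, heated in aliquots for 3 min across 48°C-58°C, pooled, and extracted in PBS with 0.5% NP-40 at 4°C, and was quantified by TMTpro 16plex LC-MS/MS with equalised channel sums. Thermal stability against control samples, from duplicates, is reported as log2 fold change.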
# [2] = compound: C1=CC=C(C=C1)[C@H](COC2=CC3=C(C=C2)NC(=O)N3)NC(=O)C4=CC=CN(C4=O)CC5=CC(=C(C=C5)F)F
# In short: as §1
# [3] = compound: Cc1sc2c(c1C)C(c1ccc(Cl)cc1)=N[C@@H](CC(=O)OC(C)(C)C)c1nnc(C)n1-2
# In short: as §1
# [4] = compound: CC1=C(SC2=C1C(=N[C@H](C3=NN=C(N32)C)CC(=O)N)C4=CC=C(C=C4)Cl)C
# In short: as §1
# [5] = compound: c1ccc([C@@H]2C[C@H]2NC2CCNCC2)cc1
# In short: as §1
target,measurement,setting,value
COG5 isoform 2 (UniProt Q9UP83),log2 fold change,[1],inactive: 0.128
COIL (UniProt P38432),log2 fold change,[2],inactive: -0.178
same,log2 fold change,[3],inactive: 0.108
CNTRL (UniProt Q7Z7A1),log2 fold change,[4],inactive: -0.136
same,log2 fold change,[1],inactive: 0.228
same,log2 fold change,[3],inactive: 0.029
same,log2 fold change,[5],inactive: 0.046

# As a working copy, some entries already given:
target,measurement,setting,value
CNTRL (UniProt Q7Z7A1),log2 fold change,[1],inactive: 0.228
same,log2 fold change,[3],inactive: 0.029
